Experimental findings from PMC4455246 are described below.

Chains of the proteins cited; added tags and fusions are not shown. Residues count along the entry.
UniProt P26819, residues 1-175: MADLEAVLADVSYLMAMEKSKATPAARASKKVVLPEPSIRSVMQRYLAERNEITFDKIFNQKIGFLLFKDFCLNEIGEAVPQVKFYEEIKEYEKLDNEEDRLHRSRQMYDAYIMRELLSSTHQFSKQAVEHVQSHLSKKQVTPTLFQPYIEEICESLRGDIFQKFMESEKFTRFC

The target of the test is isolated C-terminally myc-tagged RGS homology (RH) domain of GRK3 (N-terminal amino acids 1-175) (rat) (UniProt P26819). The test is described as follows: co-IP; lysates of lesioned rat striata infected with RH-myc lentivirus, NP-40-containing IP buffer; mouse anti-myc antibody on agarose beads, overnight at 4 °C, 3 washes; blots with rabbit anti-Gq/11 and rabbit anti-myc; uninfected intact striata as no-bait control.

These are yes or no findings as the source states them, for the method shown. In cells and extracts the contact can be indirect. Some results given as binding are weak or reduced against the parent protein; the word gives no strength.

B1: endogenous Gαq (protein, UniProt P82471 1-359)
chain: MTLESIMACCLSEEAKEARRINDEIERQLRRDKRDARRELKLLLLGTGESGKSTFIKQMRIIHGSGYSDEDKRGFTKLVYQNIFTAMQAMVRAMDTLKIPYKYEHNKAHAQLVREVDVEKVSAFENPYVDAIKSLWNDPGIQECYDRRREYQLSDSTKYYLNDLDRVADPSYLPTQQDVLRVRVPTTGIIEYPFDLQSVIFRMVDVGGQRSERRKWIHCFENVTSIMFLVALSEYDQVLVESDNENRMEESKALFRTIITYPWFQNSSVILFLNKKDLLEEKIMYSHLVDYFPEYDGPQRDAQAAREFILKMFVDLNPDSDKIIYSHFTCATDTENIRFVFAAVKDTILQLNLKEYNLV
As for B1, the binding entry is “binds”.
